Source: US20220133894A1, “BISPHOSPHONATE-LINKED COMPOUNDS” (OREGON HEALTH & SCIENCE UNIVERSITY, priority 2019, published 2022)
For at least one compound, name, drawing or mass did not settle the structure.

Legend:
PC3-luc cells = test: PCa intracardiac injection model, bone destruction by CT and survival; assay type: in vivo, mice; settings: oral 150 mg KBU2046/kg daily, intraperitoneal ZA 100 μg/kg weekly
RAW 267.4 cells = test: Osteo Assay pit formation, osteoclast-mediated bone degradation; assay type: cell-based, mouse; settings: plates pre-treated with ZA at 2, 10 and 20 μM; KBU2046 10 μM
Procedure: FIG. 4 represents the KBU2046 inhibition of osteoclast function. FIG. 4A compares effects on Raf1 activation. RAW 267.4 cells were treated with RANKL for 4 days, treated with 10 μM KBU2046 for the indicated time periods, and Western blot for the denoted proteins performed. (B) Effects on cell morphology. RAW 267.4 cells were treated with RANKL and with KBU2046 for 4 days, or not, and denoted, and stained for actin (green) and DAPI (blue); white arrow denotes an actin ring, yellow arrow a resorptive cavity. Representative immunofluorescent images are depicted. (C) Tartrate resistant acid phosphatase (TRAP) expression. […] RAW 267.4 cells were plated onto Osteo Assay plates, treated with RANKL for 6 days and with KBU2046 (or vehicle for controls) as indicated and bone surface area quantified. Data are the mean±SEM (N=3 replicates) of bone surface area, expressed as the percentage of control cells; * denotes P<0.05 compared to control.
To determine whether KBU2046 inhibits osteoclast-mediated bone degradation, we used Corning Osteo Assay Surface plates, which are coated with calcium-phosphate-based bone mineral. This platform supports osteoclast growth, allowing for the quantitative measurement of bone degradation, and has previously been used to measure bisphosphonate-mediated inhibition of bone degradation (40). […]

O=P(O)(O)C(O)(Cn1ccnc1)P(=O)(O)O [ZA, zoledronic acid]
inhibition of bone destruction in the mandible compared to control (PC3-luc cells): not significant
bone surface area (RAW 267.4 cells): concentration dependent increase
